A short description of this data set: general procedure: Fmoc solid-phase peptide synthesis; Tentagel based Rink amide resin; TBTU/DIEA. The conditions noted are these: for crude HPLC purity: HPLC (area %).

Consider “O-{[(3S)-3-Amino-4-{[(2R)-1-amino-1-oxo-3-sulfanylpropan-2-yl]amino}-4-oxobutyl]-carbamoyl}-L-tyrosyl-adrenomedullin (2-52)”, for which the “crude HPLC purity” value (late stage modification step) worked out at 85.2 area %. The step yield (late stage modification step, without correction for assay or purity) came to 100%.

“O-{[(3S)-3-Amino-4-({(2R)-1-amino-3-[(2,5-dioxo-1-{3-oxo-3-[(2-{ω-methoxy-poly-oxyethylen[40 kDa]}ethyl)amino]propyl}pyrrolidin-3-yl)sulfanyl]-1-oxopropan-2-yl}amino)-4-oxobutyl]carbamoyl}-L-tyrosyl-adrenomedullin (2-52)(“PEG-ADM”)”: where the note is “conjugation step”, the conjugation yield entry was “˜68%” and the “crude HPLC purity” value amounted to 81.6 area %. This substance returned a step yield (purification step) of 97%.

The values above are taken from patent US20240391873 (published 2024).
